Measurements reported in PubChem BioAssay AID743454 (Peter MacCallum Cancer Centre, 2014)
Assay: 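Genes whose loss kills vorinostat-resistant colon cancer cells under vorinostat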 (primary screen). Cell system: human HCT116-VR colon cancer cells, selected for vorinostat resistance. Reagent: siRNA pool against human genes, 40 nM siRNA pool. Time to read-out: vorinostat for 24 h, read-out about 72 h after transfection. Treatment: vorinostat at 2.5 µM final. Measured: 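Cell viability by CellTiter-Fluor and caspase 3/7 activity by luminescence, each scaled to mock wells per plate, duplicates averaged, then robust z-scored over all plates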. Direction: viability robust z-score: higher = more viable cells than screen typical; caspase robust z-score: higher = more caspase 3/7 activity than screen typical. Rule for the call: 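a knock-down is a hit when classed RV1 or RV2 for lowered viability, or CA1 or CA2 for caspase activation; those lethal without drug were dropped; hits were retested singly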.
Here is one part, drawn at random, of about 18,000 deposited reagents. 450 of them (2.5%) were called active. 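Single biological run; no consistent viability z cut-off exists, so the class columns, not z-scores, define the calls.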 Unmarked entries are inactive.

After knock-down of PDILT the results were viability hit class no change; caspase hit class no change; viability robust z-score -0.44; caspase robust z-score 0.4.
With knock-down of CDC23 the results were viability hit class no change; caspase hit class no change; viability robust z-score -0.51; caspase robust z-score 0.46.
Against LARP7 the deposit lists viability hit class no change; caspase hit class no change; viability robust z-score -0.89; caspase robust z-score -1.17.
With knock-down of POP7 the results were viability hit class no change; caspase hit class no change; viability robust z-score -0.06; caspase robust z-score -0.4.
For TRIL, the values are viability hit class no change (active); caspase hit class CA1 (caspase activation); viability robust z-score 0.08; caspase robust z-score 7.55.
Depletion of C1QTNF4 resulted in: viability hit class no change; caspase hit class no change; viability robust z-score -1.19; caspase robust z-score 2.94.
With knock-down of CCDC174, the screen gave viability hit class no change; caspase hit class no change; viability robust z-score -0.3; caspase robust z-score 0.8.
Silencing of GABPA resulted in: viability hit class no change; caspase hit class no change; viability robust z-score 0.56; caspase robust z-score 0.22.
After knock-down of TTLL4, the screen gave viability hit class no change; caspase hit class no change; viability robust z-score -0.34; caspase robust z-score -0.22.
ECE2 showed viability hit class no change; caspase hit class no change; viability robust z-score -0.7; caspase robust z-score -0.07.
After knock-down of VPS52 the results were viability hit class RV2 (reduced viability) (active); caspase hit class CA2 (caspase activation); viability robust z-score -4.16; caspase robust z-score 8.01.
With knock-down of PARP1, the screen gave viability hit class no change; caspase hit class no change; viability robust z-score -0.38; caspase robust z-score 1.52.
PRSS23 gave viability hit class no change; caspase hit class no change; viability robust z-score -0.04; caspase robust z-score 1.54.
H2AC4 scored viability hit class no change; caspase hit class no change; viability robust z-score -0.83; caspase robust z-score -0.88.
With knock-down of ITSN1, the screen gave viability hit class no change; caspase hit class no change; viability robust z-score -1.66; caspase robust z-score -0.29.
Against GAB4, the values are viability hit class no change; caspase hit class no change; viability robust z-score -0.44; caspase robust z-score -0.62.
Silencing of KLHL9 resulted in: viability hit class no change; caspase hit class no change; viability robust z-score 0.44; caspase robust z-score -0.44.
Silencing of DPCD gave: viability hit class no change; caspase hit class no change; viability robust z-score -1.02; caspase robust z-score 7.2.
Silencing of RAD51C gave: viability hit class no change; caspase hit class no change; viability robust z-score -1.13; caspase robust z-score -0.33.
Depletion of OPN1SW resulted in: viability hit class no change; caspase hit class no change; viability robust z-score -2.67; caspase robust z-score 1.75.
Against CYP11A1 the deposit lists viability hit class no change; caspase hit class no change; viability robust z-score 0.3; caspase robust z-score -0.34.

Targets listed so far whose target name begins with G or g:
GABPA — viability hit class = no change; caspase hit class = no change; viability robust z-score = 0.56; caspase robust z-score = 0.22
GAB4 — viability hit class = no change; caspase hit class = no change; viability robust z-score = -0.44; caspase robust z-score = -0.62
